Here are results for 2 sequences from PMC4022855.

The exact form of at least one protein or probe is not confirmed. Results from cells or extracts need not show a direct contact. No signal at the amounts used counts as a negative. Protein sequences can lack the tags named with them.

Data set [1] addresses T1, Sox9 (UniProt Q04887).
T1 sequence (looked up, limits assumed): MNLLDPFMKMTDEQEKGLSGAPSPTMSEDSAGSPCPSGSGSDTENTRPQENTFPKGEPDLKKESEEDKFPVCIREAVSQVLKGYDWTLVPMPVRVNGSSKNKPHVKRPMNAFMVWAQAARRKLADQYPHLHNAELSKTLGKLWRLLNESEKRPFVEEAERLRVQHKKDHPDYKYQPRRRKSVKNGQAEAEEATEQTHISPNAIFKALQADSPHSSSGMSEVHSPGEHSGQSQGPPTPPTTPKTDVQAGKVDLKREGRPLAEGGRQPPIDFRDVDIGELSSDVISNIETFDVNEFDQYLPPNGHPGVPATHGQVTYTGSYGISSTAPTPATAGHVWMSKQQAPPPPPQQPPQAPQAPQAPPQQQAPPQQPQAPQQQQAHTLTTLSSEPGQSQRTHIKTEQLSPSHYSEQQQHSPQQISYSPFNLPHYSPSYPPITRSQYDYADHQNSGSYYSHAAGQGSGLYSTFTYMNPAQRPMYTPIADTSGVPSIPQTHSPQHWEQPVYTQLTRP
Briefly: EMSA. The settings on record: EMSA with Chemiluminescent Nucleic Acid Detection Module (Thermo Scientific), manufacturer's protocol, pH and temperature not stated, protein in a lysate after overexpression.

The target in data set [2] is T1, Sox9. The data set is described as follows: competition with a labelled probe. As to conditions: unlabeled mutated competitor does not abolish binding to Sox-wt probe; EMSA with Chemiluminescent Nucleic Acid Detection Module (Thermo Scientific), manufacturer's protocol; pH and temperature not stated; protein in a lysate after overexpression.

As to “GGTAACCTTGTCTCAAAAACAAAACAACAAAATCCTATGA (double strand) [Sox-wt (Bbf2h7 promoter, downstream Sox motif)]”, the binding result in the data set with Sox9 [1] (abolished by 100-fold excess unlabeled competitor) is given as “binds”. Turning to “GGTAACCTTGTCTCAAAAACGCAACAACAAAATCCTATGA (double strand) [Sox-mt]”, the binding result is “no binding” with Sox9 [1] (mutated probe, lane 5) and “no binding” with Sox9 [2].
